Results taken from PMC3012091, “The Concentration of Soluble Extracellular Amyloid-β Protein in Acute Brain Slices from CRND8 Mice” (PLoS ONE, 2010).

Legend:
[1] = Diffusion of fluorescent Aβ1–42 in acute hippocampal slice, pressure ejection, 2-photon line scans; set-up: species or system mouse; settings: 6 locations
[2] = Diffusive loss of fluorescent Aβ1–42 from pre-loaded acute slices, 2-photon imaging; set-up: species or system mouse

In the case of “HiLyte Fluor 488 labeled Aβ(1–42) [fluorescent Aβ1–42]”, the “width of the Gaussian fit at end” value ([1]; after 705±145 ms of diffusion) is reported as 13.7±2.46 µm, the “width of the Gaussian fit at start” value ([1]; fluorescence line scan after pressure ejection) is reported as 6.5±1.0 µm and the “time constant of exponential fit to decay in fluorescence” value ([2]; single site of figure 4, slice pre-incubated with 50 µM for 3.5 hours, focal plane 100 µm below surface) is reported as 25.2 min. The “time constant of decline in fluorescence intensity (loss from slice)” value ([2]; slices pre-loaded with 50 µM for 2–3.5 hours, imaged 100 µm below surface during perfusion with Aβ-free ACSF at 35–37°C, n = 3 slices) was 18.0 ± 7.0 min.
